In PubChem BioAssay AID2685 (National Center for Advancing Translational Sciences (NCATS), 2010):
This is one part of the list. These are further read-outs of the screen, such as a control signal, another cell line or another target. No call is given for them. The list favours compounds with an active or inconclusive main result. The note in brackets gives the kind of curve behind each potency; many fits are weak.

Assay: qHTS Assay for Lipid Storage Modulators in Drosophila S3 Cells;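 for cell number change: cells counted by Cell Tracker Red CMTPX staining in the red channel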
Settings: BODIPY lipid droplet fluorescence, 18-24 h; for cell number change: measured here: cell count max response, cells fed with added oleic acid
Procedure, shortened: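 Drosophila S3 cells got compounds at several concentrations plus oleic acid (400 uM solution). Laser-scanning cytometry with 488 nm excitation read lipid droplets at 500-530 nm and cells at 575-640 nm. Percent activity was relative to 20 uM Triacsin C.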

[1] = measured here: cell number channel AC50, cells fed with added oleic acid
[2] = measured here: lipid fluorescence (Fed channel) AC50, cells fed with added oleic acid

| Compound | cell number change | AC50 [1] | AC50 [2] |
| --- | --- | --- | --- |
| CCCCn1c(N)c(N(CC(C)C)C(=O)c2ccc(Br)s2)c(=O)[nH]c1=O | -33.8% | 12.6 µM [falling, single point] | 11.2 µM [falling, partial curve] |
| CC(=O)NC1(C(F)(F)F)C(=O)Nc2c1c(=O)[nH]c(=O)n2CCc1ccccc1 (stereo not drawn) | -27.6% |  | 5.8 µM [falling, full curve] |
| CC(=O)Nc1ccc(S(=O)(=O)NCc2nc(-c3ccccc3C)no2)cc1 | 13.9% |  | 29.1 µM [rising, partial curve, poor fit] |
| Cc1ccc(S(=O)(=O)N2CCCC2C(=O)NC2=NCCS2)cc1 (stereo not drawn) | -0.967% | 0.00517 µM [falling, full curve, poor fit] | 14.6 µM [falling, single point] |
| N#Cc1ccc(CN2CCN(CC(=O)Nc3ccccc3C(=O)NC3CC3)CC2)cc1 | 0.376% |  | 6.51 µM [rising, partial curve] |
| CC(Sc1nnc(Nc2ccccc2)s1)C(=O)Nc1nc(-c2ccccc2)cs1 (stereo not drawn) | -44.1% |  |  |
| COc1ccccc1CC(=O)c1ccc(OCc2ccccc2)cc1 | -21% |  | 0.00651 µM [rising, full curve, poor fit] |
| CC(=O)N[C@@H](C)C(=O)N1CCN(S(=O)(=O)c2ccc(Cl)cc2)CC1 | 7.61% |  |  |
| Nc1c2c(nc3ccc(Br)cc13)N(C1CCCCC1)CC2 | -56% |  | 29.1 µM [falling, single point] |
| CC(=O)N1CCN(S(=O)(=O)c2ccc(S(=O)(=O)NC3CCCCC3)cc2)CC1 | 14% | 0.366 µM [rising, full curve, poor fit] | 11.6 µM [falling, single point] |
| Cc1ccc2[nH]c3c(N4CCc5ccccc5C4)ncnc3c2c1 | -67.4% | 11.6 µM [falling, partial curve] |  |
| CCCn1c2ccccc2c2nnc(SC(CC)C(=O)Nc3sc4c(c3C#N)CCCC4)nc21 (stereo not drawn) | 60% | 4.11 µM [rising, full curve] | 7.31 µM [rising, partial curve] |
| O=S1(=O)NC(=NCCc2ccccn2)c2ccccc21 | -35.2% | 9.2 µM [falling, partial curve, poor fit] | 25.9 µM [falling, single point] |
| Cc1cccc(NC(=S)N2CCC(N(C)CC3CCCO3)CC2)c1 (stereo not drawn) | 45.3% | 8.2 µM [rising, partial curve] | 8.2 µM [rising, partial curve] |
| O=C(N/N=C/c1coc2ccc(Cl)cc2c1=O)c1ccc(O)cc1 | -30.7% | 23.1 µM [falling, single point] |  |
| CCN(Cc1ccccc1)C(=O)c1ccccc1C | -11.5% |  | 1.46 µM [falling, partial curve] |
| N#CCc1ccc(OC(=O)Nc2ccccc2)cc1 | -0.874% |  | 1.16 µM [falling, full curve, poor fit] |
| O=C(Nc1ccc(F)cc1F)c1ccco1 | -53.2% | 29.1 µM [falling, single point] | 0.259 µM [falling, full curve, poor fit] |
| C(=N\NC1=Nc2cccc3cccc1c23)/c1cccnc1 | -3.66% | 0.651 µM [rising, single point] |  |
| O=C(COC(=O)c1ccccc1NS(=O)(=O)c1ccc(Cl)cc1)NCc1ccccc1 | 30.4% | 7.31 µM [rising, partial curve, poor fit] |  |

| Compound | cell number change | AC50 [1] | AC50 [2] |
| --- | --- | --- | --- |
| Cc1ccc(NC(=O)CC2SC(=NC3CCCCC3)NC2=O)cc1 (stereo not drawn) |  |  | 29.1 µM [rising, single point] |
| CCOC(=O)c1cnc2c(Cl)cccc2c1NCCN(C)C | 25.7% |  |  |
| Cc1ccc(OCC(=O)OC2CCCN(C)C2)cc1 (stereo not drawn) | -3.22% |  | 6.51 µM [falling, single point] |
| Cc1ccc(NC(=O)c2ccc(OCC3CCCO3)cc2)nc1 (stereo not drawn) | -1.19% | 0.00411 µM [falling, full curve, poor fit] |  |
| Cc1ccc(S(=O)(=O)N2[C@@H](c3ccc(Cl)cc3)C(C(=O)O)=CC[C@H]2c2cccc(C)c2)cc1 | -2.3% |  | 8.2 µM [falling, single point] |
| O=C1CCC(Cc2ccccc2)N1 (stereo not drawn) | -25.8% |  | 29.1 µM [falling, single point] |
| Clc1ccc(OCCn2ccnc2)c(Cl)c1 | 132% | 20.6 µM [rising, partial curve] | 23.1 µM [rising, partial curve] |
| COc1ccc(S(=O)(=O)N2CCCCCC2)cc1C(=O)NCCc1ccc(F)cc1 | 10% |  | 32.6 µM [falling, single point] |
| Cc1ccc(S(=O)(=O)CC(=O)N2CC(C)OC(C)C2)cc1 (stereo not drawn) | -5.93% |  |  |
| Cc1ccc2c(c1)N(Cc1ccncc1)C(=O)C(C)O2 (stereo not drawn) | 1.43% |  | 0.731 µM [rising, full curve, poor fit] |
| O=C(CNC(=O)Cc1ccccc1)NCc1cccc(C(F)(F)F)c1 | -17.1% |  |  |
| O=C(CSc1nnnn1-c1ccccc1)N1CCCc2ccccc21 | 132% | 5.8 µM [rising, full curve] | 4.11 µM [rising, partial curve] |
| CC(C)(C)c1ccc(Oc2ccc(NC(=O)c3cccs3)cn2)cc1 | -58.8% | 23.1 µM [falling, partial curve] | 4.11 µM [falling, single point] |
| CC1CCCN(C(=O)CCCC(=O)N2CCCC(C)C2)C1 (stereo not drawn) | 6.49% |  | 4.11 µM [falling, full curve, poor fit] |
| CC(C)OC(=O)C1Cc2ccccc2CN1S(=O)(=O)c1cccs1 (stereo not drawn) | -6.35% |  | 25.9 µM [falling, single point] |
| O=C(COC(=O)c1ccc(Cl)nc1)NNC(=O)c1ccc(Cl)cc1 | -2.41% |  |  |
| COCCCN(C(=S)NC(=O)C12CC3CC(CC(C3)C1)C2)c1c(N)n(Cc2ccccc2)c(=O)[nH]c1=O | -44% | 0.0461 µM [falling, full curve] | 0.206 µM [falling, full curve] |
| CN1C(=S)SC(N(O)C(=O)NC2CCCCC2)C1(C)C (stereo not drawn) |  | 6.51 µM [falling, single point] |  |
| CC1(C)CC2CC(C)(CN2C(=O)CCCN2C(=O)c3ccccc3C2=O)C1 (stereo not drawn) | -32.6% |  | 0.206 µM [falling, full curve] |
| COc1cc(OC)cc(C(=O)N/N=C/c2ccc(OC)c(COc3ccc4ccccc4c3)c2)c1 | -3.48% |  | 11.6 µM [falling, partial curve, poor fit] |

| Compound | cell number change | AC50 [1] | AC50 [2] |
| --- | --- | --- | --- |
| CCc1cc2c(=O)c(-c3cnn(-c4ccccc4)c3)coc2c(CN2CCOCC2)c1O | -26% |  |  |
| Cc1nc2ccc(NC(=O)c3oc4ccc(F)cc4c3C)cc2s1 | -5.02% |  | 0.00517 µM [falling, full curve, poor fit] |
| C=CCN1CN(S(=O)(=O)c2ccc(OC)cc2)c2nc3ccccc3nc21 | 0.19% |  | 20.6 µM [falling, partial curve] |
| COc1cccc(OCC(O)CN2CCOCC2)c1 (stereo not drawn) | 8.64% |  | 18.4 µM [rising, single point] |
| CCc1ccc(N(CC(=O)N2CCN(Cc3ccccc3)CC2)S(C)(=O)=O)cc1 | -7.97% |  | 29.1 µM [falling, single point] |
| COc1ccc(N(C(=O)Cn2nnc(-c3ccc(Cl)cc3)n2)C(C(=O)NCC2CCCO2)c2ccc(C)cc2)cc1 (stereo not drawn) | 29.9% | 3.26 µM [rising, full curve, poor fit] | 2.31 µM [rising, full curve] |
| COc1ccc(-c2cc(CNS(=O)(=O)c3ccc(F)cc3)on2)cc1 | 5.92% | 0.206 µM [rising, full curve, poor fit] |  |
| CCc1nc2ccc(C(=O)NCCc3ccc(OC)c(OC)c3)cc2nc1CC | -2.75% |  | 5.8 µM [falling, full curve, poor fit] |
| COc1cccc(CNC(=O)[C@@H](C)N2C(=O)N3CCc4c([nH]c5ccc(OC)cc45)C3(C)C2=O)c1 (stereo partly drawn) | -32% | 2.91 µM [falling, full curve] | 25.9 µM [falling, single point] |
| Cc1nonc1NC(=O)OC1CCCCC1 | 1.93% |  |  |
| CCCCn1nnnc1NCc1ccc(N(CC)CC)cc1 | 17.6% |  |  |
| O=C1NC(NS(=O)(=O)c2ccc(Cl)cc2)(C(F)(F)F)C(=O)N1CCc1ccccc1 (stereo not drawn) | 37.9% | 29.1 µM [rising, single point] |  |
| O=C(OCC(=O)N1CCCC1=O)C1COc2ccccc2O1 (stereo not drawn) |  |  | 0.206 µM [falling, full curve, poor fit] |
| C[C@@]12C(=O)Nc3ccc(Cl)cc3C(=O)N1[C@H]1c3ccccc3OC[C@@H]1[C@@H]2c1ccccc1 |  |  | 0.00461 µM [falling, full curve, poor fit] |
| COc1ccc(/C=C2\Oc3cc(OCC(=O)N4CC(O)C[C@H]4C(=O)O)ccc3C2=O)cc1OC (stereo partly drawn) | 13.6% |  | 29.1 µM [rising, single point] |
| O=C(COc1ccc(Cl)cc1Cl)N/N=C/CCc1ccccc1 | -39.3% | 29.1 µM [falling, single point] | 29.1 µM [falling, single point] |
| CC1=NN(c2ccccc2)C(=O)C1N=Nc1ccccc1 (stereo not drawn) | 7.65% | 6.51 µM [rising, partial curve, poor fit] |  |
| Cc1cc(C)n(CC(=O)O)c(=O)c1[N+](=O)[O-] | -51.9% | 29.1 µM [falling, single point] | 29.1 µM [falling, single point] |

A stretch of the results above:

| Compound | cell number change | AC50 [1] | AC50 [2] |
| --- | --- | --- | --- |
| Cc1nc2ccc(NC(=O)c3oc4ccc(F)cc4c3C)cc2s1 | -5.02% |  | 0.00517 µM [falling, full curve, poor fit] |
| C=CCN1CN(S(=O)(=O)c2ccc(OC)cc2)c2nc3ccccc3nc21 | 0.19% |  | 20.6 µM [falling, partial curve] |
| COc1cccc(OCC(O)CN2CCOCC2)c1 (stereo not drawn) | 8.64% |  | 18.4 µM [rising, single point] |
